Measurements reported in publication PMC11543891, “Expression, purification, and characterization of diacylated Lipo-YcjN from Escherichia coli” (The Journal of Biological Chemistry, 2024).
Results are given in words; binding and its absence hold for the method and conditions named.

Target: ΔYcjN (non-lipidated YcjN, residues 1-21 deleted) (E. coli K-12) (UniProt P76042)
Assay: SEC; Hiload 16/600 Superdex 200 pg, 25 mM Tris-HCl pH 7.5, 100 mM NaCl, run without LMNG and with 0.01% LMNG; elution volumes compared with gel filtration standards; both purified

B1: ΔYcjN (non-lipidated YcjN, residues 1-21 deleted) (domain or fragment, UniProt P76042 22-430)
chain: KEENKTNVSIEFMHSSVEQERQAVISKLIARFEKENPGITVKQVPVEEDAYNTKVITLSRSGSLPEVIETSHDYAKVMDKEQLIDRKAVATVISNVGEGAFYDGVLRIVRTEDGSAWTGVPVSAWIGGIWYRKDVLAKAGLEEPKNWQQLLDVAQKLNDPANKKYGIALPTAESVLTEQSFSQFALSNQANVFNAEGKITLDTPEMMQALTYYRDLTANTMPGSNDIMEVKDAFMNGTAPMAIYSTYILPAVIKEGDPKNVGFVVPTEKNSAVYGMLTSLTITAGQKTEETEAAEKFVTFMEQADNIADWVMMSPGAALPVNKAVVTTATWKDNDVIKALGELPNQLIGELPNIQVFGAVGDKNFTRMGDVTGSGVVSSMVHNVTVGKADLSTTLQASQKKLDELIEQH
  binding: no binding
